{"source": "PubChem BioAssay AID652272 | Drosophila RNAi Screening Center, 2013", "screen": "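Finding fly genes that regulate Hedgehog signal transduction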 (primary screen)", "system": "Drosophila clone 8 (Cl8) cells", "reagents": "long dsRNA against Drosophila genes", "measured": "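Plate reader light from a firefly reporter under a ptc promoter fragment that responds to Hedgehog, with Renilla light as transfection reference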", "scale": "firefly Hh reporter signal: higher = more ptc reporter light; Renilla reference signal: higher = more Renilla control light", "active means": "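Hit when the z-score averaged over two replicates is under -2 or over +3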", "calls": "active = hit: reporter lowered or raised; inactive = not a hit", "note": "In all, the deposit lists about 21,000 reagents; this is an unselected part of those that have a named target and a result. Of all reagents, 503 (2.4%) were called active. 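Raw plate light values, not normalised; calls rest on replicate z-scores that were not deposited; hits include reporter decreases as well as increases.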 Reagent sequences are not shown. The record does not give: the amount of reagent, the time to read-out."}
{"predicted target": "CG13722", "dsRNA": "DRSC08331", "firefly Hh reporter signal, replicate 1": 58088, "firefly Hh reporter signal, replicate 2": 58480, "Renilla reference signal, replicate 1": 5579, "Renilla reference signal, replicate 2": 4947, "Call": "inactive"}
{"predicted target": "Vha44 (Vacuolar H[+] ATPase 44kD subunit)", "dsRNA": "DRSC07572", "firefly Hh reporter signal, replicate 1": 1.67e5, "firefly Hh reporter signal, replicate 2": 89600, "Renilla reference signal, replicate 1": 5366, "Renilla reference signal, replicate 2": 2485, "Call": "active"}
{"predicted target": "Vha44 (Vacuolar H[+] ATPase 44kD subunit)", "dsRNA": "DRSC07573", "firefly Hh reporter signal, replicate 1": 83392, "firefly Hh reporter signal, replicate 2": 48372, "Renilla reference signal, replicate 1": 2157, "Renilla reference signal, replicate 2": 3435, "Call": "inactive"}
{"predicted target": "CG43315", "dsRNA": "DRSC06296", "firefly Hh reporter signal, replicate 1": 1.04e5, "firefly Hh reporter signal, replicate 2": 40485, "Renilla reference signal, replicate 1": 2700, "Renilla reference signal, replicate 2": 3331, "Call": "inactive"}

Already shown: an excerpt of the list.
{"predicted target": "Vha44 (Vacuolar H[+] ATPase 44kD subunit)", "dsRNA": "DRSC07573", "firefly Hh reporter signal, replicate 1": 83392, "firefly Hh reporter signal, replicate 2": 48372, "Renilla reference signal, replicate 1": 2157, "Renilla reference signal, replicate 2": 3435, "Call": "inactive"}
{"predicted target": "CG43315", "dsRNA": "DRSC06296", "firefly Hh reporter signal, replicate 1": 1.04e5, "firefly Hh reporter signal, replicate 2": 40485, "Renilla reference signal, replicate 1": 2700, "Renilla reference signal, replicate 2": 3331, "Call": "inactive"}

Next reagents follow:
{"predicted target": "srl (spargel)", "dsRNA": "DRSC12340", "firefly Hh reporter signal, replicate 1": 1.66e5, "firefly Hh reporter signal, replicate 2": 1.51e5, "Renilla reference signal, replicate 1": 5895, "Renilla reference signal, replicate 2": 4896, "Call": "inactive"}
{"predicted target": "5PtaseI (Inositol polyphosphate-5-phosphatase type I)", "dsRNA": "DRSC16269", "firefly Hh reporter signal, replicate 1": 87568, "firefly Hh reporter signal, replicate 2": 1.16e5, "Renilla reference signal, replicate 1": 3525, "Renilla reference signal, replicate 2": 4164, "Call": "inactive"}
{"predicted target": "osy (oskyddad)", "dsRNA": "DRSC14903", "firefly Hh reporter signal, replicate 1": 3.97e5, "firefly Hh reporter signal, replicate 2": 81604, "Renilla reference signal, replicate 1": 24613, "Renilla reference signal, replicate 2": 2864, "Call": "inactive"}
{"predicted target": "osy (oskyddad)", "dsRNA": "DRSC15979", "firefly Hh reporter signal, replicate 1": 5.95e5, "firefly Hh reporter signal, replicate 2": 1.07e5, "Renilla reference signal, replicate 1": 43301, "Renilla reference signal, replicate 2": 2481, "Call": "inactive"}
{"predicted target": "osy (oskyddad)", "dsRNA": "DRSC15981", "firefly Hh reporter signal, replicate 1": 63488, "firefly Hh reporter signal, replicate 2": 79213, "Renilla reference signal, replicate 1": 1461, "Renilla reference signal, replicate 2": 1896, "Call": "inactive"}
{"predicted target": "CG31867", "dsRNA": "DRSC03338", "firefly Hh reporter signal, replicate 1": 1.06e5, "firefly Hh reporter signal, replicate 2": 57548, "Renilla reference signal, replicate 1": 3357, "Renilla reference signal, replicate 2": 4995, "Call": "inactive"}
{"predicted target": "CG11398", "dsRNA": "DRSC18625", "firefly Hh reporter signal, replicate 1": 49539, "firefly Hh reporter signal, replicate 2": 1.69e5, "Renilla reference signal, replicate 1": 1297, "Renilla reference signal, replicate 2": 6299, "Call": "inactive"}
{"predicted target": "Lgr1 (Leucine-rich repeat-containing G protein-coupled receptor 1)", "dsRNA": "DRSC16675", "firefly Hh reporter signal, replicate 1": 4.89e5, "firefly Hh reporter signal, replicate 2": 1.18e5, "Renilla reference signal, replicate 1": 22240, "Renilla reference signal, replicate 2": 3273, "Call": "inactive"}
{"predicted target": "CG31176", "dsRNA": "DRSC15038", "firefly Hh reporter signal, replicate 1": 9.09e5, "firefly Hh reporter signal, replicate 2": 1.59e5, "Renilla reference signal, replicate 1": 41561, "Renilla reference signal, replicate 2": 3122, "Call": "inactive"}
{"predicted target": "CG31176", "dsRNA": "DRSC16021", "firefly Hh reporter signal, replicate 1": 5.50e5, "firefly Hh reporter signal, replicate 2": 1.54e5, "Renilla reference signal, replicate 1": 28644, "Renilla reference signal, replicate 2": 2277, "Call": "inactive"}
